Assay results as given in the supplement of paper PMC9938546.
Structures can show the parent of a compound that is named as a salt. The list shows a part of the results. Baselines shift from plate to plate; read single values as rough.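 HCT116-GFP is a human colorectal cancer cell line that carries a KRAS mutation, is microsatellite-unstable and always makes green fluorescent protein; the immune cells came from healthy donors. Live-cell imaging of the green signal stood in for cancer cell survival, and activated immune cells alone cut survival to about half.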

Tested on: HCT116-GFP
Test: HCT116-GFP viability (GFP intensity) relative to untreated HCT116-GFP monoculture control, co-culture with activated PBMCs; higher = less cancer cell killing
Settings: culture: co-culture with anti-CD3/IL2 activated PBMCs 1:1; 10 µM; 72 h

**Q.** With `Nc1c2c(nc3ccccc13)CCCC2` [Tacrine hydrochloride] as the compound, how does the HCT116-GFP viability read?
**A.** 57%

**Q.** `O=C1CN(/N=C/c2ccc([N+](=O)[O-])o2)C(=O)N1` [Nitrofurantoin] was tested. Which HCT116-GFP viability did it give?
**A.** 43.9%

**Q.** For `Cc1ccccc1OCC(O)CO` (centres undefined) [Mephenesin], which HCT116-GFP viability is on record?
**A.** 31.9%

**Q.** `C[C@H](N)[C@H](O)c1cccc(O)c1` [Metaraminol bitartrate] was tested. Which HCT116-GFP viability did it give?
**A.** 38.9%

**Q.** How did the HCT116-GFP viability turn out when `CCN(CC)CCOC(=O)C(Cc1cccc2ccccc12)CC1CCCO1` (centres undefined) [Nafronyl oxalate] was run?
**A.** 73.5%

**Q.** How did the HCT116-GFP viability turn out when `O=C1CN(/N=C/c2ccc(-c3ccc([N+](=O)[O-])cc3)o2)C(=O)N1` [Dantrolene sodium salt] was run?
**A.** 41.7%

**Q.** With `CCOC(=O)n1ccn(C)c1=S` [Carbimazole] as the compound, how does the HCT116-GFP viability read?
**A.** 37.5%

**Q.** For `CC1(C)S[C@@H]2[C@H](NC(=O)[C@H](C(=O)O)c3ccsc3)C(=O)N2[C@H]1C(=O)O` [Ticarcillin sodium], which HCT116-GFP viability is on record?
**A.** 40.2%

**Q.** For `Cc1cc(NS(=O)(=O)c2ccc(N)cc2)no1` [Sulfamethoxazole], which HCT116-GFP viability is on record?
**A.** 38.2%

**Q.** With `CN[C@@H]1[C@@H](O)[C@@H](O[C@@H]2[C@@H](O)[C@H](O[C@H]3OC(CN)=CC[C@H]3N)[C@@H](N)C[C@H]2N)OC[C@]1(C)O` [Sisomicin sulfate] as the compound, how does the HCT116-GFP viability read?
**A.** 46.5%

**Q.** Which HCT116-GFP viability does the source give for `CC(C)c1ccc2oc3nc(N)c(C(=O)O)cc3c(=O)c2c1` [Amlexanox] here?
**A.** 64%

**Q.** `CC1(C)S[C@@H]2[C@H](NC(=O)[C@H](NC(=O)N3CCNC3=O)c3ccccc3)C(=O)N2[C@H]1C(=O)O` [Azlocillin sodium salt] was tested. Which HCT116-GFP viability did it give?
**A.** 76.5%

**Q.** `COC(=O)Nc1nc2cc(C(=O)c3ccccc3)ccc2[nH]1` [Mebendazole] was tested. Which HCT116-GFP viability did it give?
**A.** 3.01%

**Q.** For `Cc1cc2c(cc1S(N)(=O)=O)S(=O)(=O)CCC2` [Meticrane], which HCT116-GFP viability is on record?
**A.** 45.5%

**Q.** With `NCCNCCNCCNCCN` [Tetraethylenepentamine pentahydrochloride] as the compound, how does the HCT116-GFP viability read?
**A.** 77.2%

**Q.** For `Cc1onc(-c2c(Cl)cccc2Cl)c1C(=O)N[C@@H]1C(=O)N2[C@@H]1SC(C)(C)[C@@H]2C(=O)O` [Dicloxacillin sodium salt hydrate], which HCT116-GFP viability is on record?
**A.** 64%

**Q.** Which HCT116-GFP viability does the source give for `CN1C(C)(C)CCCC1(C)C` [Pempidine tartrate] here?
**A.** 75.7%

**Q.** Which HCT116-GFP viability does the source give for `CC[N+](C)(C)Cc1ccccc1Br` [Bretylium tosylate] here?
**A.** 62.2%

**Q.** Which HCT116-GFP viability does the source give for `C[N+](C)(C)CCCCCC[N+](C)(C)C` [Hexamethonium dibromide dihydrate] here?
**A.** 36.1%

**Q.** For `CN(C)/N=N/c1[nH]cnc1C(N)=O` [Dacarbazine], which HCT116-GFP viability is on record?
**A.** 35.4%

**Q.** With `O=C(O)c1cccnc1Nc1cccc(C(F)(F)F)c1` [Niflumic acid] as the compound, how does the HCT116-GFP viability read?
**A.** 28.2%

**Q.** `COc1ccc(C(Cl)=C(c2ccc(OC)cc2)c2ccc(OC)cc2)cc1` [Chlorotrianisene] was tested. Which HCT116-GFP viability did it give?
**A.** 54%

**Q.** With `Cc1oncc1C(=O)Nc1ccc(C(F)(F)F)cc1` [Leflunomide] as the compound, how does the HCT116-GFP viability read?
**A.** 50.8%

**Q.** With `CCOC(=O)[C@H](CCc1ccccc1)N[C@@H](C)C(=O)N1Cc2ccccc2C[C@H]1C(=O)O` [Quinapril hydrochloride] as the compound, how does the HCT116-GFP viability read?
**A.** 70.9%

**Q.** How did the HCT116-GFP viability turn out when `CC(CCc1ccccc1)NCC(O)c1ccc(O)c(C(N)=O)c1` (centres undefined) [Labetalol hydrochloride] was run?
**A.** 44.5%

**Q.** For `NS(=O)(=O)c1cc(C(=O)O)cc(N2CCCC2)c1Oc1ccccc1` [Piretanide], which HCT116-GFP viability is on record?
**A.** 47%

**Q.** `Cc1cc(C(C)(C)C)c(O)c(C)c1CC1=NCCN1` [Oxymetazoline hydrochloride] was tested. Which HCT116-GFP viability did it give?
**A.** 40.5%

**Q.** For `CN(C)CCCN1c2ccccc2Sc2ccccc21` [Promazine hydrochloride], which HCT116-GFP viability is on record?
**A.** 83.2%

**Q.** With `COc1ccc([C@@H]2CC(=O)c3c(O)cc(O[C@@H]4O[C@H](CO[C@@H]5O[C@@H](C)[C@H](O)[C@@H](O)[C@H]5O)[C@@H](O)[C@H](O)[C@H]4O)cc3O2)cc1O` [Hesperidin] as the compound, how does the HCT116-GFP viability read?
**A.** 60.7%

**Q.** For `CC(C)(C(=O)O)c1ccc(C(O)CCCN2CCC(C(O)(c3ccccc3)c3ccccc3)CC2)cc1` (centres undefined) [Fexofenadine hydrochloride], which HCT116-GFP viability is on record?
**A.** 19.2%

**Q.** How did the HCT116-GFP viability turn out when `Cc1c(C)c2c(c(C)c1O)CCC(C)(COc1ccc(CC3SC(=O)NC3=O)cc1)O2` (centres undefined) [Troglitazone] was run?
**A.** 50.8%

**Q.** For `COC(c1ccccc1)(c1ccccc1)[C@H](Oc1nc(C)cc(C)n1)C(=O)O` [Ambrisentan], which HCT116-GFP viability is on record?
**A.** 35.1%

**Q.** Which HCT116-GFP viability does the source give for `CC(C(=O)O)c1ccc2c(c1)Cc1cccnc1O2` (centres undefined) [Pranoprofen] here?
**A.** 80%

**Q.** Which HCT116-GFP viability does the source give for `CSc1ccc2c(c1)C(N1CCN(C)CC1)Cc1ccccc1S2` (centres undefined) [Methiothepin maleate] here?
**A.** 45.6%

**Q.** With `CNCCCC1c2ccccc2C=Cc2ccccc21` [Protriptyline hydrochloride] as the compound, how does the HCT116-GFP viability read?
**A.** 78.4%

**Q.** `CCCCCCC[N+](CC)(CC)CCCCc1ccc(Cl)cc1` [Clofilium tosylate] was tested. Which HCT116-GFP viability did it give?
**A.** 20%

**Q.** `C[C@]12CCC(=O)C=C1CC[C@@H]1[C@@H]2[C@@H](O)C[C@@]2(C)[C@H]1CC[C@]2(O)C(=O)CO` [Hydrocortisone base] was tested. Which HCT116-GFP viability did it give?
**A.** 80%

**Q.** Which HCT116-GFP viability does the source give for `Oc1ncnc2[nH]ncc12` [Allopurinol] here?
**A.** 87.2%

**Q.** For `CCCc1cc(=O)[nH]c(=S)[nH]1` [Propylthiouracil], which HCT116-GFP viability is on record?
**A.** 39.2%

**Q.** With `COc1ccc(CCN(C)CCCC(C#N)(c2ccc(OC)c(OC)c2)C(C)C)cc1OC` (centres undefined) [Verapamil hydrochloride] as the compound, how does the HCT116-GFP viability read?
**A.** 37.5%

**Q.** How did the HCT116-GFP viability turn out when `Cc1onc(-c2ccccc2)c1-c1ccc(S(N)(=O)=O)cc1` [Valdecoxib] was run?
**A.** 35.9%

**Q.** `C[N+]1(CCCCC[N+]2(C)CCCC2)CCCC1` [Pentolinium bitartrate] was tested. Which HCT116-GFP viability did it give?
**A.** 28.2%

**Q.** Which HCT116-GFP viability does the source give for `Fc1ccc(C(c2ccc(F)cc2)N2CCN(C/C=C/c3ccccc3)CC2)cc1` [Flunarizine dihydrochloride] here?
**A.** 46.4%

**Q.** Which HCT116-GFP viability does the source give for `CCCCC(=O)O[C@H]1CC[C@H]2[C@@H]3CCc4cc(O)ccc4[C@H]3CC[C@]12C` [Estradiol Valerate] here?
**A.** 55.4%

**Q.** Which HCT116-GFP viability does the source give for `Cn1c(NCCN(CCO)CCCc2ccc([N+](=O)[O-])cc2)cc(=O)n(C)c1=O` [Nifekalant] here?
**A.** 34.7%

**Q.** `N=C(N)c1ccc(OCCCCCOc2ccc(C(=N)N)cc2)cc1` [Pentamidine isethionate] was tested. Which HCT116-GFP viability did it give?
**A.** 23.3%

**Q.** For `OCCOCCN1CCN(C2=Nc3ccccc3Sc3ccccc32)CC1` [Quetiapine hemifumarate], which HCT116-GFP viability is on record?
**A.** 55.5%

**Q.** How did the HCT116-GFP viability turn out when `CC1(C)S[C@@H]2[C@H](NC(=O)[C@H](N)c3ccc(O)cc3)C(=O)N2[C@H]1C(=O)O` [Amoxicillin] was run?
**A.** 41.7%

**Q.** `COc1cccc2c1C(=O)c1c(O)c3c(c(O)c1C2=O)C[C@@](O)(C(=O)CO)C[C@@H]3O[C@H]1C[C@H](N)[C@H](O)[C@H](C)O1` [Doxorubicin hydrochloride] was tested. Which HCT116-GFP viability did it give?
**A.** 6.06%
